Experimental findings from patent US20160222085A1 (CHILDREN S HOSPITAL OF PHILADELPHIA, published 2016) are described below.

The target in assay [1] is T1, Oregon Green 488 maleimide-modified BR (OG488-BR) (human).
T1 sequence (peptide, Oregon Green 488 maleimide on the added N-terminal Cys): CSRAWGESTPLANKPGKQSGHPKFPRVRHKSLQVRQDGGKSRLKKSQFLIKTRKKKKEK
Nature of the assay: fluorescence anisotropy; thrombin-pretreated, hirudin-quenched FV-810 R1545Q titrated into 30 nM OG488-BR with 50 uM PCPS.

Assay [2] has the same target. Nature of the assay: fluorescence anisotropy; thrombin-pretreated, hirudin-quenched FV-810 QQ titrated into 30 nM OG488-BR with 50 uM PCPS. A general note: Fluorescence polarisation rises when a labelled molecule tumbles more slowly, as on binding a larger partner.
The target is the same in assay [3]. Briefly: fluorescence anisotropy; buffer-pretreated FV-810 QQ titrated into 30 nM OG488-BR with 50 uM PCPS.
The target is the same in assay [4]. Briefly: fluorescence anisotropy; buffer-pretreated FV-810 R1545Q titrated into 30 nM OG488-BR with 50 uM PCPS.
Assay [5] shares this target. Briefly: fluorescence anisotropy; buffer-pretreated FV-810 R709Q titrated into 30 nM OG488-BR with 50 uM PCPS.

Results are given in words; binding and its absence hold for the method and conditions named. Some entries that bind do so weakly or less than the wild type.

For “FV-810^R1545Q pretreated with thrombin (from UniProt P12259 29-737; P12259 738-838; P12259 1520-2224)”, the binding entry in assay [1] is “binds”.

B1: FV-810^QQ (other, human, UniProt P12259 29-838, looked up)
chain: AQLRQFYVAAQGISWSYRPEPTNSSLNLSVTSFKKIVYREYEPYFKKEKPQSTISGLLGPTLYAEVGDIIKVHFKNKADKPLSIHPQGIRYSKLSEGASYLDHTFPAEKMDDAVAPGREYTYEWSISEDSGPTHDDPPCLTHIYYSHENLIEDFNSGLIGPLLICKKGTLTEGGTQKTFDKQIVLLFAVFDESKSWSQSSSLMYTVNGYVNGTMPDITVCAHDHISWHLLGMSSGPELFSIHFNGQVLEQNHHKVSAITLVSATSTTANMTVGPEGKWIISSLTPKHLQAGMQAYIDIKNCPKKTRNLKKITREQRRHMKRWEYFIAAEEVIWDYAPVIPANMDKKYRSQHLDNFSNQIGKHYKKVMYTQYEDESFTKHTVNPNMKEDGILGPIIRAQVRDTLKIVFKNMASRPYSIYPHGVTFSPYEDEVNSSFTSGRNNTMIRAVQPGETYTYKWNILEFDEPTENDAQCLTRPYYSDVDIMRDIASGLIGLLLICKSRSLDRRGIQRAADIEQQAVFAVFDENKSWYLEDNINKFCENPDEVKRDDPKFYESNIMSTINGYVPESITTLGFCFDDTVQWHFCSVGTQNEILTIHFTGHSFIYGKRHEDTLTLFPMRGESVTVTMDNVGTWMLTSMNSSPRSKKLRLKFRDVKCIPDDDEDSYEIFEPPESTVMATRKMHDRLEPEDEESDADYDYQNRLAAALGIQSFRNSSLNQEEEEFNLTALALENGTEFVSSNTDIIVGSNYSSPSNISKFTVNNLAEPQKAPSHQQATTAGSPLRHLIGKNSVLNSSTAEHSSPYSEDPIEDTDYIEIIPKEEVQSSEDDYAEIDYVPYDDPYKTDVRTNINSSRDPDNIAAWYLQSNNGNRRNYYIAAEEISWDYSEFVQRETDIEDSDDIPEDTTYKKVVFRKYLDSTFTKRDPRGEYEEHLGILGPIIRAEVDDVIQVRFKNLASRPYSLHAHGLSYEKSSEGKTYEDDSPEWFKEDNAVQPNSSYTYVWHATERSGPESPGSACRAWAYYSAVNPEKDIHSGLIGPLLICQKGILHKDSNMPMDMREFVLLFMTFDEKKSWYYEKKSRSSWRLTSSEMKKSHEFHAINGMIYSLPGLKMYEQEWVRLHLLNIGGSQDIHVVHFHGQTLLENGNKQHQLGVWPLLPGSFKTLEMKASKPGWWLLNTEVGENQRAGMQTPFLIMDRDCRMPMGLSTGIISDSQIKASEFLGYWEPRLARLNNGGSYNAWSVEKLAAEFASKPWIQVDMQKEVIITGIQTQGAKHYLKSCYTTEFYVAYSSNQINWQIFKGNSTRNVMYFNGNSDASTIKENQFDPPIVARYIRISPTRAYNRPTLRLELQGCEVNGCSTPLGMENGKIENKQITASSFKKSWWGDYWEPFRARLNAQGRVNAWQAKANNNKQWLEIDLLKIKKITAIITQGCKSLSSEMYVKSYTIHYSEQGVEWKPYRLKSSMVDKIFEGNTNTKGHVKNFFNPPIISRFIRVIPKTWNQSIALRLELFGCDIY
notes: range 1-810;range 1492-2196; Both thrombin sites (Arg709 and Arg1545) changed to Gln; The same molecule is used for the thrombin-pretreated sample, since both cleavage sites are removed; the assay field says where thrombin pretreatment was used
Consider B1, for which the binding entry in assay [2] and in assay [3] was “binds” throughout.

B2: FV-810^R1545Q (other, human, UniProt P12259 29-838, looked up)
chain: AQLRQFYVAAQGISWSYRPEPTNSSLNLSVTSFKKIVYREYEPYFKKEKPQSTISGLLGPTLYAEVGDIIKVHFKNKADKPLSIHPQGIRYSKLSEGASYLDHTFPAEKMDDAVAPGREYTYEWSISEDSGPTHDDPPCLTHIYYSHENLIEDFNSGLIGPLLICKKGTLTEGGTQKTFDKQIVLLFAVFDESKSWSQSSSLMYTVNGYVNGTMPDITVCAHDHISWHLLGMSSGPELFSIHFNGQVLEQNHHKVSAITLVSATSTTANMTVGPEGKWIISSLTPKHLQAGMQAYIDIKNCPKKTRNLKKITREQRRHMKRWEYFIAAEEVIWDYAPVIPANMDKKYRSQHLDNFSNQIGKHYKKVMYTQYEDESFTKHTVNPNMKEDGILGPIIRAQVRDTLKIVFKNMASRPYSIYPHGVTFSPYEDEVNSSFTSGRNNTMIRAVQPGETYTYKWNILEFDEPTENDAQCLTRPYYSDVDIMRDIASGLIGLLLICKSRSLDRRGIQRAADIEQQAVFAVFDENKSWYLEDNINKFCENPDEVKRDDPKFYESNIMSTINGYVPESITTLGFCFDDTVQWHFCSVGTQNEILTIHFTGHSFIYGKRHEDTLTLFPMRGESVTVTMDNVGTWMLTSMNSSPRSKKLRLKFRDVKCIPDDDEDSYEIFEPPESTVMATRKMHDRLEPEDEESDADYDYQNRLAAALGIRSFRNSSLNQEEEEFNLTALALENGTEFVSSNTDIIVGSNYSSPSNISKFTVNNLAEPQKAPSHQQATTAGSPLRHLIGKNSVLNSSTAEHSSPYSEDPIEDTDYIEIIPKEEVQSSEDDYAEIDYVPYDDPYKTDVRTNINSSRDPDNIAAWYLQSNNGNRRNYYIAAEEISWDYSEFVQRETDIEDSDDIPEDTTYKKVVFRKYLDSTFTKRDPRGEYEEHLGILGPIIRAEVDDVIQVRFKNLASRPYSLHAHGLSYEKSSEGKTYEDDSPEWFKEDNAVQPNSSYTYVWHATERSGPESPGSACRAWAYYSAVNPEKDIHSGLIGPLLICQKGILHKDSNMPMDMREFVLLFMTFDEKKSWYYEKKSRSSWRLTSSEMKKSHEFHAINGMIYSLPGLKMYEQEWVRLHLLNIGGSQDIHVVHFHGQTLLENGNKQHQLGVWPLLPGSFKTLEMKASKPGWWLLNTEVGENQRAGMQTPFLIMDRDCRMPMGLSTGIISDSQIKASEFLGYWEPRLARLNNGGSYNAWSVEKLAAEFASKPWIQVDMQKEVIITGIQTQGAKHYLKSCYTTEFYVAYSSNQINWQIFKGNSTRNVMYFNGNSDASTIKENQFDPPIVARYIRISPTRAYNRPTLRLELQGCEVNGCSTPLGMENGKIENKQITASSFKKSWWGDYWEPFRARLNAQGRVNAWQAKANNNKQWLEIDLLKIKKITAIITQGCKSLSSEMYVKSYTIHYSEQGVEWKPYRLKSSMVDKIFEGNTNTKGHVKNFFNPPIISRFIRVIPKTWNQSIALRLELFGCDIY
notes: range 1-810;range 1492-2196; mature numbering
With B2, the binding entry in assay [4] is reported as “binds”.

B3: FV-810^R709Q (other, human, UniProt P12259 29-838, looked up)
chain: AQLRQFYVAAQGISWSYRPEPTNSSLNLSVTSFKKIVYREYEPYFKKEKPQSTISGLLGPTLYAEVGDIIKVHFKNKADKPLSIHPQGIRYSKLSEGASYLDHTFPAEKMDDAVAPGREYTYEWSISEDSGPTHDDPPCLTHIYYSHENLIEDFNSGLIGPLLICKKGTLTEGGTQKTFDKQIVLLFAVFDESKSWSQSSSLMYTVNGYVNGTMPDITVCAHDHISWHLLGMSSGPELFSIHFNGQVLEQNHHKVSAITLVSATSTTANMTVGPEGKWIISSLTPKHLQAGMQAYIDIKNCPKKTRNLKKITREQRRHMKRWEYFIAAEEVIWDYAPVIPANMDKKYRSQHLDNFSNQIGKHYKKVMYTQYEDESFTKHTVNPNMKEDGILGPIIRAQVRDTLKIVFKNMASRPYSIYPHGVTFSPYEDEVNSSFTSGRNNTMIRAVQPGETYTYKWNILEFDEPTENDAQCLTRPYYSDVDIMRDIASGLIGLLLICKSRSLDRRGIQRAADIEQQAVFAVFDENKSWYLEDNINKFCENPDEVKRDDPKFYESNIMSTINGYVPESITTLGFCFDDTVQWHFCSVGTQNEILTIHFTGHSFIYGKRHEDTLTLFPMRGESVTVTMDNVGTWMLTSMNSSPRSKKLRLKFRDVKCIPDDDEDSYEIFEPPESTVMATRKMHDRLEPEDEESDADYDYQNRLAAALGIQSFRNSSLNQEEEEFNLTALALENGTEFVSSNTDIIVGSNYSSPSNISKFTVNNLAEPQKAPSHQQATTAGSPLRHLIGKNSVLNSSTAEHSSPYSEDPIEDTDYIEIIPKEEVQSSEDDYAEIDYVPYDDPYKTDVRTNINSSRDPDNIAAWYLRSNNGNRRNYYIAAEEISWDYSEFVQRETDIEDSDDIPEDTTYKKVVFRKYLDSTFTKRDPRGEYEEHLGILGPIIRAEVDDVIQVRFKNLASRPYSLHAHGLSYEKSSEGKTYEDDSPEWFKEDNAVQPNSSYTYVWHATERSGPESPGSACRAWAYYSAVNPEKDIHSGLIGPLLICQKGILHKDSNMPMDMREFVLLFMTFDEKKSWYYEKKSRSSWRLTSSEMKKSHEFHAINGMIYSLPGLKMYEQEWVRLHLLNIGGSQDIHVVHFHGQTLLENGNKQHQLGVWPLLPGSFKTLEMKASKPGWWLLNTEVGENQRAGMQTPFLIMDRDCRMPMGLSTGIISDSQIKASEFLGYWEPRLARLNNGGSYNAWSVEKLAAEFASKPWIQVDMQKEVIITGIQTQGAKHYLKSCYTTEFYVAYSSNQINWQIFKGNSTRNVMYFNGNSDASTIKENQFDPPIVARYIRISPTRAYNRPTLRLELQGCEVNGCSTPLGMENGKIENKQITASSFKKSWWGDYWEPFRARLNAQGRVNAWQAKANNNKQWLEIDLLKIKKITAIITQGCKSLSSEMYVKSYTIHYSEQGVEWKPYRLKSSMVDKIFEGNTNTKGHVKNFFNPPIISRFIRVIPKTWNQSIALRLELFGCDIY
notes: as for B2
On to B3, for which the binding result in assay [5] is recorded as “binds”.
